In paper PMC7641770, “Novel polyadenylylation-dependent neutralization mechanism of the HEPN/MNT toxin/antitoxin system” (Nucleic Acids Research, 2020):
Results are given in words; binding and its absence hold for the method and conditions named. Binding seen in cells or lysates may run through a third protein. Some results given as binding are weak or reduced against the parent protein; the word gives no strength. Tags and fused reporters may be left off the sequences shown.

Target: T1, HepT toxin (SO_3166) of Shewanella oneidensis, C-terminal His6 tag, unmodified (co-produced with an inactive MntA variant) (Shewanella oneidensis) (UniProt Q8ECH6)
T1 sequence: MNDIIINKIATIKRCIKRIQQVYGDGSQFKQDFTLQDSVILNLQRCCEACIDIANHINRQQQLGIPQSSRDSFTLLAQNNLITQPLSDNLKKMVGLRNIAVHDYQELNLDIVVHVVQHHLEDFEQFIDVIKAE
Assay: pull-down

Substance: MntA G27A,S28T (SO_3165) of Shewanella oneidensis, untagged (from UniProt Q8ECH7 1-139) (enzyme)
- binding: binds
